Measured values: US20050226879A1, “Methods and compositions related to inhibiting nuclear envelope breakdown” (priority 2002, published 2005)
No constants are given. Whether binding was seen depends on the method and setting. Some results given as binding are weak or reduced against the parent protein; the word gives no strength.

Protein sequences, listed by entry. Tags and fused reporters are not part of them. Residues count along the entry.
UniProt P49790, residues 658-891: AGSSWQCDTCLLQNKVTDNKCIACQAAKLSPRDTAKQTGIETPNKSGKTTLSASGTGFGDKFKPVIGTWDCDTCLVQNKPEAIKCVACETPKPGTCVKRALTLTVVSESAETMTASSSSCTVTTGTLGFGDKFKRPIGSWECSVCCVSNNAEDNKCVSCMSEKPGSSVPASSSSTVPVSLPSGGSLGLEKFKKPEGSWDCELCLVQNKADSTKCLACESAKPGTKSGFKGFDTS

Key:
[1] = target: GST-hZnF (GST fusion of the Nup153 zinc finger domain used as phage display target) (UniProt P49790); test: phage display selection, three rounds, on GST-hZnF immobilized on glutathione beads
[2] = target: GST-hZnF (GST fusion of the Nup153 zinc finger domain used as phage display target) (UniProt P49790); test: phage display selection on the Nup153 zinc finger

Row | Binder | binding [1] | binding [2]
1 | CGEHVRPSCGGGS [SEQ ID NO 31 peptide (…), second peptide from the ZnF phage display screen] | binds | –
2 | CTHPFTHECGGGS [ZNFPHD1 peptide] | binds | binds
